Laboratory results from patent US7611852B2, “Functional cardiomyocytes from human embryonic stem cells” (Wisconsin Alumni Research Foundation, priority 2002, dated 2009).

System: embryonic ventricular-like cardiomyocytes
Settings: CMs treated with E-4031; never observed in the absence of E-4031

Compound: Cc1cccc(CCN2CCC(C(=O)c3ccc(NS(C)(=O)=O)cc3)CC2)n1 [E-4031]
- EADs (early afterdepolarizations) observed, fraction of cells: ⅗
